Experimental data: PubChem BioAssay AID1224830 (NIAID, 2016)

Assay: 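Host factors that control LPS-induced TNF expression in human macrophages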 (primary screen)
System: human THP-1 monocytic leukaemia cells, TNF dual-luciferase reporter clone, PMA-differentiated to macrophage-like cells
Reagents: siRNA pool against human genes, 50 nM
Time to read-out: LPS for 4 h, given about 3 days after siRNA transfection
Conditions: bacterial LPS (TLR4 ligand), 10 ng/ml
Read-out: 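Ratio of firefly to renilla light, scaled to the plate median and expressed as a robust z-score per replicate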
Direction: TNF reporter robust z-score: higher = stronger TNF reporter response to LPS
Rule for the call: 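Each well counts as active if its z-score is over 2.8 or under -1.5; controls are left without a call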
The deposit covers about 18,000 reagents; this is a part drawn at random. Of all reagents, about 2,900 (16%) got an active call. 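Calls are made per well; low scores hint the gene aids the LPS response, high scores that it dampens it.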 A number with no mark means an inactive call. Repeated entries: four replicate wells of each siRNA pool.

| gene | TNF reporter robust z-score |
| --- | --- |
| KRT18 (keratin 18) | 0.07 |
| KRT18 (keratin 18) | 0.23 |
| KRT18 (keratin 18) | 0.64 |
| KRT18 (keratin 18) | -1.14 |
| DEUP1 (deuterosome assembly protein 1) | -0.12 |
| DEUP1 (deuterosome assembly protein 1) | 0.26 |
| DEUP1 (deuterosome assembly protein 1) | 0.1 |
| DEUP1 (deuterosome assembly protein 1) | -0.35 |
| CBLL1 (Cbl proto-oncogene like 1) | -0.82 |
| CBLL1 (Cbl proto-oncogene like 1) | -0.51 |
| CBLL1 (Cbl proto-oncogene like 1) | 0.5 |
| CBLL1 (Cbl proto-oncogene like 1) | -0.55 |
| SLC25A11 | 1 |
| SLC25A11 | 1.74 |
| SLC25A11 | 1.09 |
| SLC25A11 | 2.39 |
| NMD3 (NMD3 ribosome export adaptor) | -0.23 |
| NMD3 (NMD3 ribosome export adaptor) | -0.27 |
| NMD3 (NMD3 ribosome export adaptor) | 0.21 |
| NMD3 (NMD3 ribosome export adaptor) | 1.69 |
| HDGFL1 (HDGF like 1) | 1.66 |
| HDGFL1 (HDGF like 1) | 2.33 |
| HDGFL1 (HDGF like 1) | -0.33 |
| HDGFL1 (HDGF like 1) | 1.29 |
| IPO4 (importin 4) | 1.57 |
| IPO4 (importin 4) | 1.96 |
| IPO4 (importin 4) | -0.85 |
| IPO4 (importin 4) | -0.25 |
| DNAH5 (dynein axonemal heavy chain 5) | -0.24 |
| DNAH5 (dynein axonemal heavy chain 5) | 1.78 |
| DNAH5 (dynein axonemal heavy chain 5) | 0.22 |
| DNAH5 (dynein axonemal heavy chain 5) | 0.36 |
| SETD4 (SET domain containing 4) | 0.13 |
| SETD4 (SET domain containing 4) | 0.71 |
| SETD4 (SET domain containing 4) | -0.15 |
| SETD4 (SET domain containing 4) | 0.15 |
| CD44 (CD44 molecule (IN blood group)) | -1.41 |
| CD44 (CD44 molecule (IN blood group)) | -0.92 |
| CD44 (CD44 molecule (IN blood group)) | -0.05 |
| CD44 (CD44 molecule (IN blood group)) | -0.47 |
| SEMA6B (semaphorin 6B) | 4.77 (active) |
| SEMA6B (semaphorin 6B) | 1.46 |
| SEMA6B (semaphorin 6B) | -0.21 |
| SEMA6B (semaphorin 6B) | 1.01 |
| WDR83OS (WD repeat domain 83 opposite strand) | 1.79 |
| WDR83OS (WD repeat domain 83 opposite strand) | 1.94 |
| WDR83OS (WD repeat domain 83 opposite strand) | 1.43 |
| WDR83OS (WD repeat domain 83 opposite strand) | 0.87 |
| AQP3 (aquaporin 3 (Gill blood group)) | -0.51 |
| AQP3 (aquaporin 3 (Gill blood group)) | 1.33 |
| AQP3 (aquaporin 3 (Gill blood group)) | 0.35 |
| AQP3 (aquaporin 3 (Gill blood group)) | -0.12 |
| SLTM (SAFB like transcription modulator) | 0.41 |
| SLTM (SAFB like transcription modulator) | 0.36 |
| SLTM (SAFB like transcription modulator) | 0.14 |
| SLTM (SAFB like transcription modulator) | 0.27 |
| KCNJ5 (potassium inwardly rectifying channel subfamily J member 5) | 0.2 |
| KCNJ5 (potassium inwardly rectifying channel subfamily J member 5) | 3.67 (active) |
| KCNJ5 (potassium inwardly rectifying channel subfamily J member 5) | 3.47 (active) |
| KCNJ5 (potassium inwardly rectifying channel subfamily J member 5) | 3.66 (active) |
| CLLU1 (chronic lymphocytic leukemia up-regulated 1) | -0.88 |
| CLLU1 (chronic lymphocytic leukemia up-regulated 1) | -0.72 |
| CLLU1 (chronic lymphocytic leukemia up-regulated 1) | -0.58 |
| CLLU1 (chronic lymphocytic leukemia up-regulated 1) | 0.6 |
| FBXO47 (F-box protein 47) | -1.05 |
| FBXO47 (F-box protein 47) | 2.6 |
| FBXO47 (F-box protein 47) | 1.96 |
| FBXO47 (F-box protein 47) | 2.63 |
| SPTLC3 (serine palmitoyltransferase long chain base subunit 3) | 8.49 (active) |
| SPTLC3 (serine palmitoyltransferase long chain base subunit 3) | 0.91 |
| SPTLC3 (serine palmitoyltransferase long chain base subunit 3) | -0.73 |
| SPTLC3 (serine palmitoyltransferase long chain base subunit 3) | 0.74 |
| SYT8 (synaptotagmin 8) | 0.27 |
| SYT8 (synaptotagmin 8) | 0.37 |
| SYT8 (synaptotagmin 8) | 0.94 |
| SYT8 (synaptotagmin 8) | 0.61 |
| RAB36 (RAB36, member RAS oncogene family) | 0.32 |
| RAB36 (RAB36, member RAS oncogene family) | 0.6 |
| RAB36 (RAB36, member RAS oncogene family) | 0.69 |
| RAB36 (RAB36, member RAS oncogene family) | 0.87 |
| RAB5C (RAB5C, member RAS oncogene family) | 0.54 |
| RAB5C (RAB5C, member RAS oncogene family) | 1.53 |
| RAB5C (RAB5C, member RAS oncogene family) | 0.94 |
| RAB5C (RAB5C, member RAS oncogene family) | 2.4 |
| GPS1 (G protein pathway suppressor 1) | -0.12 |
| GPS1 (G protein pathway suppressor 1) | -0.06 |
| GPS1 (G protein pathway suppressor 1) | -0.63 |
| GPS1 (G protein pathway suppressor 1) | -0.64 |
| ZFP37 (ZFP37 zinc finger protein) | 1.4 |
| ZFP37 (ZFP37 zinc finger protein) | 0.26 |
| ZFP37 (ZFP37 zinc finger protein) | -0.14 |
| ZFP37 (ZFP37 zinc finger protein) | 0.19 |
| SRSF10 (serine and arginine rich splicing factor 10) | 1.65 |
| SRSF10 (serine and arginine rich splicing factor 10) | 2.38 |
| SRSF10 (serine and arginine rich splicing factor 10) | 2.02 |
| SRSF10 (serine and arginine rich splicing factor 10) | 1.41 |
| MT4 (metallothionein 4) | -1.12 |
| MT4 (metallothionein 4) | -1.05 |
| MT4 (metallothionein 4) | -0.06 |
| MT4 (metallothionein 4) | -0.01 |
| SMARCA4 | -0.23 |
| SMARCA4 | -0.45 |
| SMARCA4 | -0.37 |
| SLC27A1 | 0.94 |
| SLC27A1 | 0.32 |
| SLC27A1 | 0.07 |
| SLC27A1 | 1.62 |
| FBXW7 (F-box and WD repeat domain containing 7) | -0.67 |
| FBXW7 (F-box and WD repeat domain containing 7) | -1.69 (active) |
| FBXW7 (F-box and WD repeat domain containing 7) | -2.19 (active) |
| FBXW7 (F-box and WD repeat domain containing 7) | -2.28 (active) |

Reagents listed above called active:
| gene | TNF reporter robust z-score |
| --- | --- |
| SEMA6B (semaphorin 6B) | 4.77 (active) |
| KCNJ5 (potassium inwardly rectifying channel subfamily J member 5) | 3.67 (active) |
| KCNJ5 (potassium inwardly rectifying channel subfamily J member 5) | 3.47 (active) |
| KCNJ5 (potassium inwardly rectifying channel subfamily J member 5) | 3.66 (active) |
| SPTLC3 (serine palmitoyltransferase long chain base subunit 3) | 8.49 (active) |
| FBXW7 (F-box and WD repeat domain containing 7) | -1.69 (active) |
| FBXW7 (F-box and WD repeat domain containing 7) | -2.19 (active) |
| FBXW7 (F-box and WD repeat domain containing 7) | -2.28 (active) |
